Laboratory results: PubChem BioAssay AID504791 (Drosophila RNAi Screening Center, 2011)
Aim: 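Genes of the fly required for silencing by miRNA, siRNA or endo-siRNA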 (primary screen). Cells: Drosophila S2-derived reporter cells. Reagent: long dsRNA against Drosophila genes, about 150-250 ng dsRNA per well (siRNA assay); about 80-120 ng (miRNA assay). Time to read-out: about 5 days (siRNA assay); about 4 days (miRNA assay). Challenge: copper sulfate induction of reporters: 25 µM (siRNA assay); 200 mM stated (miRNA assay), 1-2 days before reading. Measured: 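Per-well ratio of Renilla over firefly light, expressed relative to that plate's average ratio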. Units: stable assay Renilla, run 1 in luminescence; stable assay firefly, run 1 in luminescence. Rule for the call: 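a well was a first-pass pick when its plate-scaled ratio rose above 1.5 (siRNA assay) or 1.6 (miRNA assay), or dropped below 0.6; a gene counted only if two separate dsRNAs agreed on retest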.
The deposit covers about 23,000 reagents; below is an unselected part of those that have a named target and a result. Over the whole deposit, 199 (0.86%) are marked active. 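Plate-scaled ratios behind the calls are not deposited; printed light signals are raw; many rows marked increased or decreased are still called inactive.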 Unmarked entries are inactive. A plus sign joins genes that one reagent is predicted to hit. Not given: the direction of the score.

ND5 (retired record) [DRSC21281]
- stable assay Renilla, run 1: 7438
- stable assay firefly, run 1: 5.64e5

Hsp60A [DRSC20254]
- stable assay Renilla, run 1: 7819
- stable assay firefly, run 1: 7.07e5

cer [DRSC05992]
- stable assay Renilla, run 1: 6510
- stable assay firefly, run 1: 3.61e5

mRNA-cap [DRSC19789]
- stable assay Renilla, run 1: 4511
- stable assay firefly, run 1: 4.97e5

mRpS30 [DRSC20107]
- stable assay Renilla, run 1: 6927
- stable assay firefly, run 1: 4.40e5

CG12828 [DRSC06177]
- stable assay Renilla, run 1: 8063
- stable assay firefly, run 1: 4.18e5

CG34159 [DRSC02885]
- stable assay Renilla, run 1: 6399
- stable assay firefly, run 1: 2.91e5

CG34159 [DRSC23222]
- stable assay Renilla, run 1: 4986
- stable assay firefly, run 1: 3.24e5

CG8176 [DRSC16394]
- stable assay Renilla, run 1: 5923
- stable assay firefly, run 1: 3.36e5

CG33463 [DRSC22915]
- stable assay Renilla, run 1: 2160
- stable assay firefly, run 1: 2.72e5

CG34107 [DRSC14554]
- stable assay Renilla, run 1: 5964
- stable assay firefly, run 1: 3.42e5

CG32100 [DRSC09725]
- stable assay Renilla, run 1: 6380
- stable assay firefly, run 1: 3.36e5

CG32100 [DRSC10331]
- stable assay Renilla, run 1: 6256
- stable assay firefly, run 1: 3.20e5

CG3961 [DRSC10390]
- stable assay Renilla, run 1: 8152
- stable assay firefly, run 1: 2.56e5

CG3961 [DRSC10391]
- stable assay Renilla, run 1: 7607
- stable assay firefly, run 1: 5.92e5

Cht2 [DRSC08650]
- stable assay Renilla, run 1: 8556
- stable assay firefly, run 1: 3.00e5

Zdhhc8 [DRSC18044]
- miRNA reporter change: reporter ratio raised past the hit cutoff
- stable assay Renilla, run 1: 4515
- stable assay firefly, run 1: 3.02e5

Zdhhc8 [DRSC18122]
- stable assay Renilla, run 1: 5343
- stable assay firefly, run 1: 4.18e5

Dpy-30L1 [DRSC02959]
- stable assay Renilla, run 1: 7607
- stable assay firefly, run 1: 4.01e5

CG43736 + CG33692 (retired record) [DRSC18370]
- stable siRNA reporter change: reporter ratio lowered past the hit cutoff
- stable assay Renilla, run 1: 7399
- stable assay firefly, run 1: 7.80e5

CG43736 + CG33692 (retired record) [DRSC18371]
- stable assay Renilla, run 1: 6424
- stable assay firefly, run 1: 3.83e5

Vps20 [DRSC04448]
- stable assay Renilla, run 1: 5991
- stable assay firefly, run 1: 3.52e5

CG3687 [DRSC06850]
- stable assay Renilla, run 1: 6606
- stable assay firefly, run 1: 3.15e5

CG14969 [DRSC08428]
- stable assay Renilla, run 1: 7371
- stable assay firefly, run 1: 4.76e5

Or59c [DRSC04633]
- stable assay Renilla, run 1: 6859
- stable assay firefly, run 1: 4.54e5

CG42809 + CG42810 [DRSC02532]
- stable assay Renilla, run 1: 6947
- stable assay firefly, run 1: 5.42e5

CG42809 + CG42810 [DRSC02533]
- stable assay Renilla, run 1: 7680
- stable assay firefly, run 1: 3.71e5

CecA1 [DRSC16603]
- stable assay Renilla, run 1: 6955
- stable assay firefly, run 1: 4.70e5

Ir54a + sub [DRSC06459]
- stable assay Renilla, run 1: 6419
- stable assay firefly, run 1: 3.44e5

Est-6 [DRSC11162]
- stable assay Renilla, run 1: 5602
- stable assay firefly, run 1: 3.06e5

out [DRSC19347]
- stable assay Renilla, run 1: 7299
- stable assay firefly, run 1: 3.58e5

CG14342 [DRSC00372]
- stable assay Renilla, run 1: 7519
- stable assay firefly, run 1: 3.68e5

CadN2 + CG42830 [DRSC03062]
- stable assay Renilla, run 1: 6083
- stable assay firefly, run 1: 3.70e5

CadN2 + CG42830 [DRSC03063]
- stable assay Renilla, run 1: 6591
- stable assay firefly, run 1: 4.00e5

CadN2 + CG42830 [DRSC03064]
- stable assay Renilla, run 1: 7508
- stable assay firefly, run 1: 4.27e5

Part of the list above, reformatted:
{"predicted target":"Est-6","DRSC id":"DRSC11162","stable assay Renilla, run 1":5602,"stable assay firefly, run 1":3.06e5}
{"predicted target":"out","DRSC id":"DRSC19347","stable assay Renilla, run 1":7299,"stable assay firefly, run 1":3.58e5}
{"predicted target":"CG14342","DRSC id":"DRSC00372","stable assay Renilla, run 1":7519,"stable assay firefly, run 1":3.68e5}
{"predicted target":"CadN2 + CG42830","DRSC id":"DRSC03062","stable assay Renilla, run 1":6083,"stable assay firefly, run 1":3.70e5}
{"predicted target":"CadN2 + CG42830","DRSC id":"DRSC03063","stable assay Renilla, run 1":6591,"stable assay firefly, run 1":4.00e5}
